# Laboratory results reported in the supplement of paper PMC10032668.
# Chains of the proteins cited; added tags and fusions are not shown.
# IGF2BP3, O00425, UniProt O00425, whole entry: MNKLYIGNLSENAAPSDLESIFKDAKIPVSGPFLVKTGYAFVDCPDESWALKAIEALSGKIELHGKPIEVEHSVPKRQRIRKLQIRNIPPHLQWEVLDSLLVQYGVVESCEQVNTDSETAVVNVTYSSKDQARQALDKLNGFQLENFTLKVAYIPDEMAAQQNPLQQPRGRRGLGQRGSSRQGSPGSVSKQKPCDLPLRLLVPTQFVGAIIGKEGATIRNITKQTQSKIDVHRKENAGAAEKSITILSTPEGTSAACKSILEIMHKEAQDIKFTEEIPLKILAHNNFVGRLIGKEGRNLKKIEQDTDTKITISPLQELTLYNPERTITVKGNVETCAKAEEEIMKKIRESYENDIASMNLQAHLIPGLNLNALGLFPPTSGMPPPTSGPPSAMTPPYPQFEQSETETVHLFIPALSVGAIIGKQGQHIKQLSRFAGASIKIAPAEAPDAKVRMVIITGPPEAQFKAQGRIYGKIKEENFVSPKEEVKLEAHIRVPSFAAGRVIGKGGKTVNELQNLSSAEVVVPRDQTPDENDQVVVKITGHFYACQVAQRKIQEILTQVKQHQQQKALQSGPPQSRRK
# KPNA1, P52294, UniProt P52294, whole entry: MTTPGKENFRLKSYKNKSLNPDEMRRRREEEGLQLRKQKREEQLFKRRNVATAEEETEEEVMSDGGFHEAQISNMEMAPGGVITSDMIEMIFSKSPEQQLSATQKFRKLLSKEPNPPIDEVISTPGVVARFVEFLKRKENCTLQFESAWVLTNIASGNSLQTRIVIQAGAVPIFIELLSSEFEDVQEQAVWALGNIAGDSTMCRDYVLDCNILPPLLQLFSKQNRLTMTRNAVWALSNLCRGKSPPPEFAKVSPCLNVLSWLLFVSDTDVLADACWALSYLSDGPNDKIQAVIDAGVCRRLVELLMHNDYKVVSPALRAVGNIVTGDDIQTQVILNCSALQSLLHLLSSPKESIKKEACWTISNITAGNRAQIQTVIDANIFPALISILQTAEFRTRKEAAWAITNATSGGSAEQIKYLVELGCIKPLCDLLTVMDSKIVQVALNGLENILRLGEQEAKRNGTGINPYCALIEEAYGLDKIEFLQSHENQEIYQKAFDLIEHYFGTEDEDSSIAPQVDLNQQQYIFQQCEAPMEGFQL
# Some of the results follow. The list holds hits alone, and they repeat only in part.
# Assays:
# Experiment in all cases: PRISMA enrichment of interactor (LFQ) in peptide spot vs all other peptide spots (log2 fold change); higher = stronger / more specific binding of the interactor to the peptide
# ACIN1, Q9UKV3 = target: ACIN1, Q9UKV3
# Method: (§1)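 PRISMA: 221 full-length sORF-encoded peptides (3-15 aa), plus SOS1/GLUT1 control peptides, were spot-synthesized on cellulose membranes in triplicate. Membranes were incubated with HEK293T lysate, and bound proteins were identified by LC-MS/MS with LFQ. Enrichment is the log2 fold change versus all other peptide spots; only significant interactors are listed (cutoff c=6, x0=2.8).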
# ANP32A, P39687 = target: ANP32A, P39687
# Method: as §1
# ANP32B, Q92688 = target: ANP32B, Q92688
# Method: as §1
# ANP32E, Q9BTT0 = target: ANP32E, Q9BTT0
# Method: as §1
# BRIX1, Q8TDN6 = target: BRIX1, Q8TDN6
# Method: as §1
# CDC73, Q6P1J9 = target: CDC73, Q6P1J9
# Method: as §1
# CTR9, Q6PD62 = target: CTR9, Q6PD62
# Method: as §1
# DAP3, P51398 = target: DAP3, P51398
# Method: as §1
# DDX21, Q9NR30 = target: DDX21, Q9NR30
# Method: as §1
# EBNA1BP2, Q99848 = target: EBNA1BP2, Q99848
# Method: as §1
# EIF2A, Q9BY44 = target: EIF2A, Q9BY44
# Method: as §1
# EIF6, P56537 = target: EIF6, P56537
# Method: as §1
# GNL2, Q13823 = target: GNL2, Q13823
# Method: as §1
# GPC4, O75487 = target: GPC4, O75487
# Method: as §1
# GRSF1, Q12849 = target: GRSF1, Q12849
# Method: as §1
# GRWD1, Q9BQ67 = target: GRWD1, Q9BQ67
# Method: as §1
# GTPBP4, Q9BZE4 = target: GTPBP4, Q9BZE4
# Method: as §1
# HTATSF1, O43719 = target: HTATSF1, O43719
# Method: as §1
# IGF2BP3, O00425 = target: IGF2BP3, O00425
# Method: as §1
# KPNA1, P52294 = target: KPNA1, P52294
# Method: as §1
# LARP1, Q6PKG0 = target: LARP1, Q6PKG0
# Method: as §1
# LARP7, Q4G0J3 = target: LARP7, Q4G0J3
# Method: as §1
# LTV1, Q96GA3 = target: LTV1, Q96GA3
# Method: as §1
# MAGEB2, O15479 = target: MAGEB2, O15479
# Method: as §1
# MOV10, Q9HCE1 = target: MOV10, Q9HCE1
# Method: as §1
# MRPL10, Q7Z7H8 = target: MRPL10, Q7Z7H8
# Method: as §1
# MRPS2, Q9Y399 = target: MRPS2, Q9Y399
# Method: as §1
# MRPS27, Q92552 = target: MRPS27, Q92552
# Method: as §1
# MRPS31, Q92665 = target: MRPS31, Q92665
# Method: as §1
# MRPS34, P82930 = target: MRPS34, P82930
# Method: as §1
# MRPS35, P82673 = target: MRPS35, P82673
# Method: as §1
# MRPS7, Q9Y2R9 = target: MRPS7, Q9Y2R9
# Method: as §1
# MRPS9, P82933 = target: MRPS9, P82933
# Method: as §1
# MRTO4, Q9UKD2 = target: MRTO4, Q9UKD2
# Method: as §1
# NAT10, Q9H0A0 = target: NAT10, Q9H0A0
# Method: as §1
# NOB1, Q9ULX3 = target: NOB1, Q9ULX3
# Method: as §1
# NOP2, P46087 = target: NOP2, P46087
# Method: as §1
# PAF1, Q8N7H5 = target: PAF1, Q8N7H5
# Method: as §1
# PELP1, Q8IZL8 = target: PELP1, Q8IZL8
# Method: as §1
# PTCD3, Q96EY7 = target: PTCD3, Q96EY7
# Method: as §1
# RIOK1, Q9BRS2 = target: RIOK1, Q9BRS2
# Method: as §1
# RO60, P10155 = target: RO60, P10155
# Method: as §1
# RPLP1, P05386 = target: RPLP1, P05386
# Method: as §1
# RPS29, P62273 = target: RPS29, P62273
# Method: as §1
# RSL1D1, O76021 = target: RSL1D1, O76021
# Method: as §1
# SART3, Q15020 = target: SART3, Q15020
# Method: as §1
# SET, Q01105 = target: SET, Q01105
# Method: as §1
# STAU1, O95793 = target: STAU1, O95793
# Method: as §1
# SUPT5H, O00267 = target: SUPT5H, O00267
# Method: as §1
# SUPT6H, Q7KZ85 = target: SUPT6H, Q7KZ85
# Method: as §1
# TOP1, P11387 = target: TOP1, P11387
# Method: as §1
# TSR1, Q2NL82 = target: TSR1, Q2NL82
# Method: as §1
# UPF1, Q92900 = target: UPF1, Q92900
# Method: as §1
# ZRANB2, O95218 = target: ZRANB2, O95218
# Method: as §1
binder,measurement,setting,value
MQAGKRN [PKIG],PRISMA enrichment of interactor (log2),"ACIN1, Q9UKV3",5.51
same,PRISMA enrichment of interactor (log2),"ANP32A, P39687",6.61
same,PRISMA enrichment of interactor (log2),"ANP32B, Q92688",7.24
same,PRISMA enrichment of interactor (log2),"ANP32E, Q9BTT0",7.69
same,PRISMA enrichment of interactor (log2),"BRIX1, Q8TDN6",5.03
same,PRISMA enrichment of interactor (log2),"CDC73, Q6P1J9",5.33
same,PRISMA enrichment of interactor (log2),"CTR9, Q6PD62",6.13
same,PRISMA enrichment of interactor (log2),"DAP3, P51398",5.07
same,PRISMA enrichment of interactor (log2),"DDX21, Q9NR30",6.46
same,PRISMA enrichment of interactor (log2),"EBNA1BP2, Q99848",5.58
same,PRISMA enrichment of interactor (log2),"EIF2A, Q9BY44",4.46
same,PRISMA enrichment of interactor (log2),"EIF6, P56537",6.71
same,PRISMA enrichment of interactor (log2),"GNL2, Q13823",5.72
same,PRISMA enrichment of interactor (log2),"GPC4, O75487",5.59
same,PRISMA enrichment of interactor (log2),"GRSF1, Q12849",4.7
same,PRISMA enrichment of interactor (log2),"GRWD1, Q9BQ67",5.48
same,PRISMA enrichment of interactor (log2),"GTPBP4, Q9BZE4",6.14
same,PRISMA enrichment of interactor (log2),"HTATSF1, O43719",7.33
same,PRISMA enrichment of interactor (log2),"IGF2BP3, O00425",5.6
same,PRISMA enrichment of interactor (log2),"KPNA1, P52294",5.76
same,PRISMA enrichment of interactor (log2),"LARP1, Q6PKG0",6.63
same,PRISMA enrichment of interactor (log2),"LARP7, Q4G0J3",4.99
same,PRISMA enrichment of interactor (log2),"LTV1, Q96GA3",4.69
same,PRISMA enrichment of interactor (log2),"MAGEB2, O15479",5.52
same,PRISMA enrichment of interactor (log2),"MOV10, Q9HCE1",6.19
same,PRISMA enrichment of interactor (log2),"MRPL10, Q7Z7H8",5.13
same,PRISMA enrichment of interactor (log2),"MRPS2, Q9Y399",4.84
same,PRISMA enrichment of interactor (log2),"MRPS27, Q92552",5.59
same,PRISMA enrichment of interactor (log2),"MRPS31, Q92665",5.95
same,PRISMA enrichment of interactor (log2),"MRPS34, P82930",5.67
same,PRISMA enrichment of interactor (log2),"MRPS35, P82673",5.46
same,PRISMA enrichment of interactor (log2),"MRPS7, Q9Y2R9",5.09
same,PRISMA enrichment of interactor (log2),"MRPS9, P82933",6.18
same,PRISMA enrichment of interactor (log2),"MRTO4, Q9UKD2",4.63
same,PRISMA enrichment of interactor (log2),"NAT10, Q9H0A0",6.03
same,PRISMA enrichment of interactor (log2),"NOB1, Q9ULX3",4.96
same,PRISMA enrichment of interactor (log2),"NOP2, P46087",5.31
same,PRISMA enrichment of interactor (log2),"PAF1, Q8N7H5",6.83
same,PRISMA enrichment of interactor (log2),"PELP1, Q8IZL8",5.31
same,PRISMA enrichment of interactor (log2),"PTCD3, Q96EY7",5.93
same,PRISMA enrichment of interactor (log2),"RIOK1, Q9BRS2",4.91
same,PRISMA enrichment of interactor (log2),"RO60, P10155",5.22
same,PRISMA enrichment of interactor (log2),"RPLP1, P05386",6.44
same,PRISMA enrichment of interactor (log2),"RPS29, P62273",4.92
same,PRISMA enrichment of interactor (log2),"RSL1D1, O76021",5.5
same,PRISMA enrichment of interactor (log2),"SART3, Q15020",4.89
same,PRISMA enrichment of interactor (log2),"SET, Q01105",5.54
same,PRISMA enrichment of interactor (log2),"STAU1, O95793",5.56
same,PRISMA enrichment of interactor (log2),"SUPT5H, O00267",5.32
same,PRISMA enrichment of interactor (log2),"SUPT6H, Q7KZ85",4.65
same,PRISMA enrichment of interactor (log2),"TOP1, P11387",4.93
same,PRISMA enrichment of interactor (log2),"TSR1, Q2NL82",5.34
same,PRISMA enrichment of interactor (log2),"UPF1, Q92900",5.63
same,PRISMA enrichment of interactor (log2),"ZRANB2, O95218",4.8

# Some of the entries so far, tab-delimited.
binder	measurement	setting	value
MQAGKRN [PKIG]	PRISMA enrichment of interactor (log2)	ANP32A, P39687	6.61
same	PRISMA enrichment of interactor (log2)	GPC4, O75487	5.59
